# Data: the supplement of paper PMC11006884
# Amino acid sequences for entries named in this document (tags omitted). A change or cut given only in a name is not applied to a line headed by its entry.
# UniProt P52272: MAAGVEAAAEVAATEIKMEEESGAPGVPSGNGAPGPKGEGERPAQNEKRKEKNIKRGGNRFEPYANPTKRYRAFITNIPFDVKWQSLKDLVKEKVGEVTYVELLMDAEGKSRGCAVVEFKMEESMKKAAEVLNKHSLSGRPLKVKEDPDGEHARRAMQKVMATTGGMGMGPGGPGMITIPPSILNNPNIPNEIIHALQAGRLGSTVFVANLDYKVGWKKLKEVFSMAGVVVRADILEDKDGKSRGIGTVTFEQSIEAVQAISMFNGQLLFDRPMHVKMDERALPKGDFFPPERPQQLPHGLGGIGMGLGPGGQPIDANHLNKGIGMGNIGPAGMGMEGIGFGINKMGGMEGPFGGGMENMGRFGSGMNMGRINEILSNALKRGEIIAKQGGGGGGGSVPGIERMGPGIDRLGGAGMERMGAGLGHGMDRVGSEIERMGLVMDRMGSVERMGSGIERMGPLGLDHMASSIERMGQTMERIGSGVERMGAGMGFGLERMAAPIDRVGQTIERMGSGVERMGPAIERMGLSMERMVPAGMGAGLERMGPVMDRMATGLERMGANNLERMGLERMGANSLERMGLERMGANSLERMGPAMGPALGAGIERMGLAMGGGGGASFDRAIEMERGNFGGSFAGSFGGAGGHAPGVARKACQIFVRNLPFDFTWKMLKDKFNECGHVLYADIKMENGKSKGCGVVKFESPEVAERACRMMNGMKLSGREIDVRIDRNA
# UniProt P55265: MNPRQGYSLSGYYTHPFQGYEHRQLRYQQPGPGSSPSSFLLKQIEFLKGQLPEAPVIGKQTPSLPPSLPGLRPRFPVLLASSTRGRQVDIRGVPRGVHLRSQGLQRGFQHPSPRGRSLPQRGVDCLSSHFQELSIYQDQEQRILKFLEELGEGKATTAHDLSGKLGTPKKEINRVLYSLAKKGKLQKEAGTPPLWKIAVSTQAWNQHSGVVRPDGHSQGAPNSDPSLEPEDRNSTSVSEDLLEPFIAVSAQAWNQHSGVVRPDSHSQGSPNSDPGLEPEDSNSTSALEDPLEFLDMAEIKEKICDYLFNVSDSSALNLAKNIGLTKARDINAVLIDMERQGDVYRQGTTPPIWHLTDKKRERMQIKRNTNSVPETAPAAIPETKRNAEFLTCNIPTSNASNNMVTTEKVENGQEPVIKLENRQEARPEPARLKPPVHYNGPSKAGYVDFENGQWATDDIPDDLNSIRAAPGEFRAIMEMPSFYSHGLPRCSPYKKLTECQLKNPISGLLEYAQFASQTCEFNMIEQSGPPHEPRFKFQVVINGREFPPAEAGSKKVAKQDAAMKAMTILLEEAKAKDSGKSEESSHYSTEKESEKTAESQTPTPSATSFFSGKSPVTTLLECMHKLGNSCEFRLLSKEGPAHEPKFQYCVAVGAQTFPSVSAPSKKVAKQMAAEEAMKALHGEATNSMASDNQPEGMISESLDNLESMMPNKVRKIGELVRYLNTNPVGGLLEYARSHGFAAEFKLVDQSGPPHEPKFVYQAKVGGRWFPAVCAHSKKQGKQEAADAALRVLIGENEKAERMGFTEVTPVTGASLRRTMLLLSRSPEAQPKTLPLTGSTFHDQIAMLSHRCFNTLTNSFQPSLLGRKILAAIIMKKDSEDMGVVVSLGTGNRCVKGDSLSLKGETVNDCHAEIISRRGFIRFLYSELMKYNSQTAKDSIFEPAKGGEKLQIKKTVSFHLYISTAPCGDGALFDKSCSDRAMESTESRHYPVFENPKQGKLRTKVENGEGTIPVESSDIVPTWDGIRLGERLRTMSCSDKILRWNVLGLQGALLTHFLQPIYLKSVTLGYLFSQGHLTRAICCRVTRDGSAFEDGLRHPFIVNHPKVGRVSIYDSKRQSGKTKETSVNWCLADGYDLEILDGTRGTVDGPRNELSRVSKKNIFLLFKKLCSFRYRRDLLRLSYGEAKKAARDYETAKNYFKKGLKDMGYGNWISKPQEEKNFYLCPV
# UniProt P52209: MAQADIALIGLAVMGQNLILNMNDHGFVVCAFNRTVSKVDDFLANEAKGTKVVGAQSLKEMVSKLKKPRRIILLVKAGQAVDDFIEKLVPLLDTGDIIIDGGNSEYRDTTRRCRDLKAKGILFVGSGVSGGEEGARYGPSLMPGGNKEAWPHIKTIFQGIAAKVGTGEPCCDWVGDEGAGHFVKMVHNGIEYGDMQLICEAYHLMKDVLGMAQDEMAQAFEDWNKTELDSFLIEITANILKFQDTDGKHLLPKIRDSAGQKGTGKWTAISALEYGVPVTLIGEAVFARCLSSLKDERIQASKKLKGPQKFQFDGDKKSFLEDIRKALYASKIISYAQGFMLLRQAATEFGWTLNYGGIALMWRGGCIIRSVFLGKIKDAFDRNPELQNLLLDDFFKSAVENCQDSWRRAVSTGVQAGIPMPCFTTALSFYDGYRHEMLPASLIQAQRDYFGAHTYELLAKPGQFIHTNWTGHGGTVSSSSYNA
# UniProt P51659: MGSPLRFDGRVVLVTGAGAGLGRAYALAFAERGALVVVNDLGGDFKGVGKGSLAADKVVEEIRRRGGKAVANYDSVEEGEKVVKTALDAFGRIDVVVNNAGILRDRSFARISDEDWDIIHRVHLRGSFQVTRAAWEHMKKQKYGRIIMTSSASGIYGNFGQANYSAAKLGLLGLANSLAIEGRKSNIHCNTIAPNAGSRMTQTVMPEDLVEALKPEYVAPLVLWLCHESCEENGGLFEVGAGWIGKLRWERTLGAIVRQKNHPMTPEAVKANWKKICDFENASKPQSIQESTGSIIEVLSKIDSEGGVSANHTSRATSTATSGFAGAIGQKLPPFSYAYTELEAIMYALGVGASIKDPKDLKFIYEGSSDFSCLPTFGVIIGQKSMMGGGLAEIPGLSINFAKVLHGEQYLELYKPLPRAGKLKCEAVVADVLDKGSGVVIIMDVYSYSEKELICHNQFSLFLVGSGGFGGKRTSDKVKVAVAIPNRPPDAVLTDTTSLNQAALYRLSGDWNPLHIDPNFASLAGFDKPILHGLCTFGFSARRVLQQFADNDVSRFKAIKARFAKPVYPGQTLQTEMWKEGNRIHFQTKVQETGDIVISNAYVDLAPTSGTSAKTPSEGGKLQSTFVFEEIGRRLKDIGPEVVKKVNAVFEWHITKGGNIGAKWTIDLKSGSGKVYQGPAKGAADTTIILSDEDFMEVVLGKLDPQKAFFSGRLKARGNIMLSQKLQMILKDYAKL
# UniProt P53701: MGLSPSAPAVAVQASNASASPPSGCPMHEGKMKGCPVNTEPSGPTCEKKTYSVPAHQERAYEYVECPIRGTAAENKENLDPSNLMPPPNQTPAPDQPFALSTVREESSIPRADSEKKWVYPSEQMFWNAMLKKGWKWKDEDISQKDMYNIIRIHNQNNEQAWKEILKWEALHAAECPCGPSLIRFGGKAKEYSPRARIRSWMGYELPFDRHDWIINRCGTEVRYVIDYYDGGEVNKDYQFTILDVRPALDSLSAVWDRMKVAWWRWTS
# UniProt P51649: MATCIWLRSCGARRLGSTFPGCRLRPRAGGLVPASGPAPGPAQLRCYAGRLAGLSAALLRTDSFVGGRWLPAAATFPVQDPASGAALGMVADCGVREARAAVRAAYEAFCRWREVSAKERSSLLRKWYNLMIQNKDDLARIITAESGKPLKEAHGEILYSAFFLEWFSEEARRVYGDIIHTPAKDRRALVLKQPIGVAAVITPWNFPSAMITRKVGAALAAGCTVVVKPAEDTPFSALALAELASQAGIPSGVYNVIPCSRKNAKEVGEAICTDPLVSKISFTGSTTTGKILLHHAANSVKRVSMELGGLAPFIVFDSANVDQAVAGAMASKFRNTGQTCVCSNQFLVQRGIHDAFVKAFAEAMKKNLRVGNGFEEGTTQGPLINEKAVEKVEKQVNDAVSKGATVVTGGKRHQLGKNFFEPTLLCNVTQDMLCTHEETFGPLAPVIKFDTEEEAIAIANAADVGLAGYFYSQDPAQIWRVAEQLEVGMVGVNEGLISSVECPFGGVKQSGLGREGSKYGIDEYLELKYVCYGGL
# UniProt P55036: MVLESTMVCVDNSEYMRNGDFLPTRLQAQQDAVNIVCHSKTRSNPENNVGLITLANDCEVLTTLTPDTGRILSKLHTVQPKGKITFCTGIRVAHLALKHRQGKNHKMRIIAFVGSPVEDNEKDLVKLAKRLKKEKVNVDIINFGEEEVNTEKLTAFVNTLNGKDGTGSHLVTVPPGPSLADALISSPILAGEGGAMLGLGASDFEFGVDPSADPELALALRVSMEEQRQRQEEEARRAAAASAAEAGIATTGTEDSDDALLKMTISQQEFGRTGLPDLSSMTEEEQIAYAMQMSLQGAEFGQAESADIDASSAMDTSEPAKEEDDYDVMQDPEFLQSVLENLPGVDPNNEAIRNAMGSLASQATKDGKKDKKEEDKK
# UniProt P55072, whole entry, looked up: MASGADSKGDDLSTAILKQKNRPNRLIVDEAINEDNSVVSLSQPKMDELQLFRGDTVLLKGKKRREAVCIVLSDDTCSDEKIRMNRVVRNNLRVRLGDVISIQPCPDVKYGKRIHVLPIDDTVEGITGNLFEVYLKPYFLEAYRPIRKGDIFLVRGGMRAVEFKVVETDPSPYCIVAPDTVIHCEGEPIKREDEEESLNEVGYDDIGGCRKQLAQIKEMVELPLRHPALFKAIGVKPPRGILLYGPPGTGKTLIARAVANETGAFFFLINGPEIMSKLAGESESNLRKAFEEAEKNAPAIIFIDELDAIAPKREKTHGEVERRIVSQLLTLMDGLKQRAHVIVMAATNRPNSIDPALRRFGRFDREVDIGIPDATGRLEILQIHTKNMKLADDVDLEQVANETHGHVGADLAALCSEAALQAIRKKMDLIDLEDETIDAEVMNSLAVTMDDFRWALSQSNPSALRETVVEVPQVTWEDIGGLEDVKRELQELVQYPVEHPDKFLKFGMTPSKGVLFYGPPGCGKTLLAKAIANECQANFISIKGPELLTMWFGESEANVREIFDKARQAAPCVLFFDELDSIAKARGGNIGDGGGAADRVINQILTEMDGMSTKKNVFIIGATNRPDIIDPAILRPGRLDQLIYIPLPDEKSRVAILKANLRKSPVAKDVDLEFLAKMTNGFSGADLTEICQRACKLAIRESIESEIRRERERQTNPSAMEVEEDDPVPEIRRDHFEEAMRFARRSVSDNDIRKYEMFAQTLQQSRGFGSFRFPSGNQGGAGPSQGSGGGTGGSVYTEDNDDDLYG
# UniProt P54886: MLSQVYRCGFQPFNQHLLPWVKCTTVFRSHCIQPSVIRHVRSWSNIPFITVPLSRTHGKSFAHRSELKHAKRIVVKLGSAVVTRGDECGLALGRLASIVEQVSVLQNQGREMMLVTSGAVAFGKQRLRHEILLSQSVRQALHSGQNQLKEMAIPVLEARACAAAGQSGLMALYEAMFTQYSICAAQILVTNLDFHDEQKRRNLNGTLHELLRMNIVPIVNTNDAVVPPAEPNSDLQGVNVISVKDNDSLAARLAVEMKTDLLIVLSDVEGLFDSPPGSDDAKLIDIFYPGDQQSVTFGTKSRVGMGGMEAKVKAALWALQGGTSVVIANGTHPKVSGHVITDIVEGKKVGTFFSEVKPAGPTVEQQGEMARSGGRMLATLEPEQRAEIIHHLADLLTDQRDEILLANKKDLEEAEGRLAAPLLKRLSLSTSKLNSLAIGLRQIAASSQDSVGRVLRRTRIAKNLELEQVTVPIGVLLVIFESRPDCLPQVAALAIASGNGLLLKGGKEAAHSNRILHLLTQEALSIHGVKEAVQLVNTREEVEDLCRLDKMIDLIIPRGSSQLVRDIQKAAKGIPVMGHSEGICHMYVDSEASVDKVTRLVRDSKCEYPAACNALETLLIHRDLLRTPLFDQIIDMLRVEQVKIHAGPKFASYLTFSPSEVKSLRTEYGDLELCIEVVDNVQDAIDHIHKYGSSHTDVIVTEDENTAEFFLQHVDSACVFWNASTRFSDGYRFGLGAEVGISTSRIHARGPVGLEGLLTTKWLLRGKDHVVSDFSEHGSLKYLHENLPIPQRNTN
# UniProt P60174, whole entry, looked up: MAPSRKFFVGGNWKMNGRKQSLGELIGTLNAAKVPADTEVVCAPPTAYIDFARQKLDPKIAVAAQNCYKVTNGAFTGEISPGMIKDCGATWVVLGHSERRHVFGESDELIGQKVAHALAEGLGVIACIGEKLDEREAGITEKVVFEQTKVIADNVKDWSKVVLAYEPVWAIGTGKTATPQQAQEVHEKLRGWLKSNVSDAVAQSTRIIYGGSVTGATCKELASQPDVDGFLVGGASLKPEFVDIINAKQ
# UniProt P60891: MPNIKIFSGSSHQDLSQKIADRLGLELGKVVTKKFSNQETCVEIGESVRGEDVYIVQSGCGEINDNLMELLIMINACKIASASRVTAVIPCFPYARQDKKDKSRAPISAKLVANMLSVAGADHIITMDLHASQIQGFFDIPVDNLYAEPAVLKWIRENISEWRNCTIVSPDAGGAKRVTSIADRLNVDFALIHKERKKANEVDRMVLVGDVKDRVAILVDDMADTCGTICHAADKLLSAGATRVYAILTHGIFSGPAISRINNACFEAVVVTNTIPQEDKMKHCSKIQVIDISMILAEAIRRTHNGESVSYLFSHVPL
# Only a part is listed here, and it is no random draw.
# Compound: COC(=O)C#Cc1ccccc1 [methyl 3-phenylpropiolate]
# Test: log2 ratio of iodoacetamide-alkyne labeling of the cysteine site, DMSO over compound (competition); higher = stronger covalent engagement of the cysteine by the compound, active = 1 or more
# Conditions: 500 µM; treatment time 1 h; system: HEK293T cell lysate
# Outline: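 For each cysteine, the log2 competition ratio is mean control-channel reporter intensity over mean compound-channel reporter intensity. HEK293T lysate (2 mg/mL) was exposed to vehicle or electrophile (500 µM, 1 h, ambient temperature), labelled with iodoacetamide alkyne (1 h), clicked to sCIP-TMT reagents, digested overnight with trypsin at 37 °C, streptavidin-enriched and analysed by Orbitrap Eclipse LC-MS/MS with FAIMS and FragPipe. Cysteines quantified in only one of three replicates, each with duplicate channels, were excluded.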
row,Target,log2 ratio of iodoacetamide-alkyne labeling
1,HNRNPM C676 (UniProt P52272),inactive: 0.154
2,UniProt P61163_C34,inactive: 0.205
3,UniProt P60866_C70,inactive: 0.806
4,UniProt P61224_C141,inactive: 0.129
5,UniProt P61106_C40,inactive: 0.513
6,ADAR C649 (UniProt P55265),inactive: 0.375
7,AP3M2 C29 (UniProt P53677),inactive: 0.485
8,NUBP1 C22 (UniProt P53384),active: 2.24
9,EIF6 C11 (UniProt P56537),inactive: 0.103
10,PGD C422 (UniProt P52209),inactive: -0.311
11,HDGF C108 (UniProt P51858),inactive: 0.398
12,UniProt P61978_C205,inactive: 0.0241
13,PGD C170 (UniProt P52209),inactive: -0.0784
14,HSD17B4 C535 (UniProt P51659),inactive: -0.0514
15,KIF11 C819 (UniProt P52732),inactive: 0.437
16,KPNA2 C223 (UniProt P52292),inactive: 0.209
17,DSTN C12 (UniProt P60981),inactive: -0.0619
18,UniProt P61081_C47,inactive: 0.248

row,Target,log2 ratio of iodoacetamide-alkyne labeling
1,NPEPPS C887 (UniProt P55786),inactive: 0.408
2,HCCS C66 (UniProt P53701),inactive: 0.724
3,KPNA2 C133 (UniProt P52292),inactive: 0.525
4,HNRNPA3 C64 (UniProt P51991),inactive: 0.03
5,KPNA1 C210 (UniProt P52294),inactive: 0.586
6,ALDH5A1 C340 (UniProt P51649),inactive: 0.926
7,SEC61B C39 (UniProt P60468),inactive: 0.555
8,PSMD4 C87 (UniProt P55036),inactive: 0.0446
9,CORO7 C505 (UniProt P57737),inactive: 0.469
10,THOP1 C682 (UniProt P52888),inactive: 0.174
11,NUP98 C1590 (UniProt P52948),inactive: 0.601
12,ARHGDIA C79 (UniProt P52565),inactive: -0.0733
13,UniProt P55072_C535,inactive: 0.087
14,CSE1L C387 (UniProt P55060),inactive: 0.716
15,ALDH18A1 C612 (UniProt P54886),inactive: 0.146
16,TPI1 C124 (UniProt P60174),inactive: -0.216
17,UniProt P60891_C41,inactive: -0.0365
18,ADK C353 (UniProt P55263),inactive: 0.274

# A different layout for part of the listing above:
row | Target | log2 ratio of iodoacetamide-alkyne labeling
4 | UniProt P61224_C141 | inactive: 0.129
17 | DSTN C12 (UniProt P60981) | inactive: -0.0619
